No constants are given. Whether binding was seen depends on the method and setting. Binding seen in cells or lysates may run through a third protein. Some results given as binding are weak or reduced against the parent protein; the word gives no strength.

By UniProt entry, the sequences of proteins in these tests, tags left out. Where a name states a change or a piece, a line headed by the entry shows the natural chain unless it says otherwise.
UniProt P38398: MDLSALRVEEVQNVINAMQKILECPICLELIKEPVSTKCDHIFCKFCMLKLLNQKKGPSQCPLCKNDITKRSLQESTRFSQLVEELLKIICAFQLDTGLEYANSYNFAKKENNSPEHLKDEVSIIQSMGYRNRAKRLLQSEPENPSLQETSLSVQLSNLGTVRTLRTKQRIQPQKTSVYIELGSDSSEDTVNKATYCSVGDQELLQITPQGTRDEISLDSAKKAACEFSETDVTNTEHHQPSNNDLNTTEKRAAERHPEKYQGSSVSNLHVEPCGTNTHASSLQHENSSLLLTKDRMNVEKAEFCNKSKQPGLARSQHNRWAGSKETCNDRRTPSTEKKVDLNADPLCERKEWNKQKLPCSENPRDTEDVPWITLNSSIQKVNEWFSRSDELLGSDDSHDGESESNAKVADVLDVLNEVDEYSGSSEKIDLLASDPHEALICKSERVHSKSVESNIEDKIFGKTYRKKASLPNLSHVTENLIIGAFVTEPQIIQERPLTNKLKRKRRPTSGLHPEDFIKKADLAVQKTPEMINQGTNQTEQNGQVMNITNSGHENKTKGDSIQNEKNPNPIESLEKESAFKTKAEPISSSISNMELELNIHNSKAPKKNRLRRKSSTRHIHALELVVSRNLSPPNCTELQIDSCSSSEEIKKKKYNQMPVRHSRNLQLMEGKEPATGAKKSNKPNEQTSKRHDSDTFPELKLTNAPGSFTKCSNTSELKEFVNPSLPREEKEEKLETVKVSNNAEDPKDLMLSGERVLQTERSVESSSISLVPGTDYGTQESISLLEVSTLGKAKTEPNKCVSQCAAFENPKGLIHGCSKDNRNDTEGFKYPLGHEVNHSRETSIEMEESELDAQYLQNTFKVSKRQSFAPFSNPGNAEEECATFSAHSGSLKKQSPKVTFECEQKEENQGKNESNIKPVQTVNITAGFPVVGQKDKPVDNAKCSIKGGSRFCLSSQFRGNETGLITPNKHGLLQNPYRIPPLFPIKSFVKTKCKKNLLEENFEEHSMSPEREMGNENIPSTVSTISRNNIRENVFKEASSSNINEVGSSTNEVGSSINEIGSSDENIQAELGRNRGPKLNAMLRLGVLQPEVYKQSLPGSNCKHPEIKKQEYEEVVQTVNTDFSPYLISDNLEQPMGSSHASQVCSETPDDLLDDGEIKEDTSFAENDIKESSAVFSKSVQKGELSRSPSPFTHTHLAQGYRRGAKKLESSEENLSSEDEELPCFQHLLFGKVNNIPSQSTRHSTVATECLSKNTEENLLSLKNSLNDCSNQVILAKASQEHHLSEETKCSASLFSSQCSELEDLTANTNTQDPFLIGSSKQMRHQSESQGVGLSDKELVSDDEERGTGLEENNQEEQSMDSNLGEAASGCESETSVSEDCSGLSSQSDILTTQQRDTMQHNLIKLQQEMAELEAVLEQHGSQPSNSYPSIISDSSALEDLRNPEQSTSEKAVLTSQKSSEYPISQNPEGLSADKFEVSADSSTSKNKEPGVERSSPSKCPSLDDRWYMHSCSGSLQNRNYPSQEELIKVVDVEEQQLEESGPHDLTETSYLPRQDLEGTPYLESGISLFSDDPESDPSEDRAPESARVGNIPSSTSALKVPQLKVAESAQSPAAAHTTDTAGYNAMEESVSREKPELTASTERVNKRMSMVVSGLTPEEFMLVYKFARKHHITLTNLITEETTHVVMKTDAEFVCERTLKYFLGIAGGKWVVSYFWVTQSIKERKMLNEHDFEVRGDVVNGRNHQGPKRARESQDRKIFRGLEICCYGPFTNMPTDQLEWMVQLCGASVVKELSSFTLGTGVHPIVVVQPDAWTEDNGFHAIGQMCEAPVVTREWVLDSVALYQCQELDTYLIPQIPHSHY
UniProt P51532: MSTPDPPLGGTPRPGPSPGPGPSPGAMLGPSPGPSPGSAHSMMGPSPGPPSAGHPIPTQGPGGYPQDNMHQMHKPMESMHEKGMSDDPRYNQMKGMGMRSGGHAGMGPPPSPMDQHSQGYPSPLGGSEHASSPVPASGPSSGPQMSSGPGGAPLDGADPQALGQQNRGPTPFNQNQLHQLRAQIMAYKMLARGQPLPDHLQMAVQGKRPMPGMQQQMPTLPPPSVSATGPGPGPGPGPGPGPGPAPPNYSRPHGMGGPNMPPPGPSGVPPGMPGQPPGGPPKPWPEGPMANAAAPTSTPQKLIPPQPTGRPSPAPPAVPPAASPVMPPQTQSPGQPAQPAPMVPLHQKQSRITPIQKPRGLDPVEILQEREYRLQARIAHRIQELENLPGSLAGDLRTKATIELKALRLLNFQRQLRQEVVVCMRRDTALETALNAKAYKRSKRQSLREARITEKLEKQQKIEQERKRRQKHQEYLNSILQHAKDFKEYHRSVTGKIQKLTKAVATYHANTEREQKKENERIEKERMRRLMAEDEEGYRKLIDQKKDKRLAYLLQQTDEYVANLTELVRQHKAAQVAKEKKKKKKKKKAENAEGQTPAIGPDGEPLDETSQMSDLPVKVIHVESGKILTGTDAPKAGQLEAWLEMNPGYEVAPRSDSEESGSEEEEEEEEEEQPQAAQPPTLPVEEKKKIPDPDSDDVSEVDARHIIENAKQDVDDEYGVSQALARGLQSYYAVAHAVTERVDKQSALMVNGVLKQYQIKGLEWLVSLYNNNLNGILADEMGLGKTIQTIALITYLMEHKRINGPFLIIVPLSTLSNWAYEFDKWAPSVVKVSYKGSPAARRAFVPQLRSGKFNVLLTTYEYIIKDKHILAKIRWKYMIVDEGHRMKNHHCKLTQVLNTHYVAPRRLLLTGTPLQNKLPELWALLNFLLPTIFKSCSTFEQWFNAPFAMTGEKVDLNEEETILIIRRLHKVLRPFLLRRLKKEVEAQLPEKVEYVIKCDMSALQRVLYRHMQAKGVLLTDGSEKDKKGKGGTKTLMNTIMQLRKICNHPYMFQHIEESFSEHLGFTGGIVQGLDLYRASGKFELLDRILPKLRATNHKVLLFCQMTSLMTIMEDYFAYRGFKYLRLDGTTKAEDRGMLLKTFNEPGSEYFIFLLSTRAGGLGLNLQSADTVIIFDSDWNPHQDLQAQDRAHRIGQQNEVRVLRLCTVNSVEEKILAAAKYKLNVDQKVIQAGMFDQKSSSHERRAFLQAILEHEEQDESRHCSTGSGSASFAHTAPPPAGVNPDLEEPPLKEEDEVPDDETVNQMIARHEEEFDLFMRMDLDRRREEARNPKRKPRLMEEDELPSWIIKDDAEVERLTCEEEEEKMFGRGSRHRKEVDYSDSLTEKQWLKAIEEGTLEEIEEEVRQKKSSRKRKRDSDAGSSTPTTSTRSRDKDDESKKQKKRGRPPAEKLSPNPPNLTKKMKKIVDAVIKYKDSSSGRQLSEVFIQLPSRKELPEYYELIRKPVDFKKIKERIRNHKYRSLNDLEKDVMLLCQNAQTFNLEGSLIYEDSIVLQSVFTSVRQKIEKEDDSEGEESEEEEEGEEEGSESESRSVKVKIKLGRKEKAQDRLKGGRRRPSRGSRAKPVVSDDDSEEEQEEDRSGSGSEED

From patent US20080171387A1 come the findings set out here.

Experiment [1] concerns the target Full-length his-tagged BRCA1 (Homo sapiens (Human)) (UniProt P38398). As to the kind of experiment: FLAG affinity column pull-down of purified recombinant FLAG-BRG1 and his-BRCA1, western blot; similar results on co-expression in insect cells. A general note: A western blot detects proteins with antibodies after separation by electrophoresis.
Experiment [2] deals with GST-BRCA1 fusion protein #2 (BRCA1 amino acids 260-553) (Homo sapiens (Human)) (UniProt P38398). As to the kind of experiment: GST pull-down on glutathione-SEPHAROSE, western blot for BRG1.

Turning to FLAG-BRG1 (from UniProt P51532 1-1647), the binding result in experiment [1] and in experiment [2] was “binds” in each case.
